Assay results: the supplement of paper PMC9744312
Several values for one entry are separate records, joined by “and”; a condition that tells them apart may be missing. Identical values can stand only once. Counter-ions that a name gives are not always drawn. Some of the results follow. Single values of this set are uncertain.

tested on: Peyronie's disease tunica albuginea primary fibroblasts; experiment: cell viability (DRAQ5 nuclear stain) relative to TGF-beta1-only control; higher = more viable cells; details: 10 µM; TGF-beta1 10 ng/mL; 72 h

| Structure (SMILES) | cell viability |
| --- | --- |
| C[C@H]1O[C@H](O[C@H]2[C@H](O)[C@@H](O)[C@@H](O[C@H]3[C@H](O)[C@@H](O)C(O)O[C@@H]3CO)O[C@@H]2CO)[C@H](O)[C@@H](O)[C@@H]1N[C@H]1C=C(CO)[C@@H](O)[C@H](O)[C@H]1O (stereo partly specified) [Acarbose] | 98.9% |
| CNC1CCCN(c2c(F)cc3c(=O)c(C(=O)O)cn(C4CC4)c3c2OC)C1 (stereo unspecified) [Balofloxacin] | 92.7% |
| CC[C@H]1[C@@H](O)[C@@H]2[C@H](CC[C@]3(C)[C@@H]([C@H](C)CCC(=O)O)CC[C@@H]23)[C@@]2(C)CC[C@@H](O)C[C@@H]12 [Obeticholic Acid] | 95.8% |
| C=C1CC[C@H](O)C/C1=C/C=C1\CCC[C@]2(C)[C@@H]([C@H](C)CCCC(C)C)CC[C@@H]12 [cholecalciferol (Vitamin D3)] | 73.2% |
| CCCc1cc(C(N)=S)ccn1 [Protionamide] | 93.9% |
| C#Cc1cccc(Nc2ncnc3cc(OC)c(OCCCCCCC(=O)NO)cc23)c1 | 40.1% |
| CC(=O)S[C@@H]1CC2=CC(=O)CC[C@]2(C)[C@H]2CC[C@@]3(C)[C@@H](CC[C@@]34CCC(=O)O4)[C@H]12 [Spironolactone] | 86.3% |
| CCOC(=O)[C@H](CCc1ccccc1)N[C@H]1CS[C@H](c2cccs2)CN(CC(=O)O)C1=O [Temocapril HCl] | 93.2% |
| O=C1OCCN1/N=C/c1ccc([N+](=O)[O-])o1 [Furazolidone] | 91.1% |
| CCCCC(F)(F)[C@@]1(O)CC[C@H]2[C@@H](CC(=O)[C@@H]2CCCCCCC(=O)O)O1 [Lubiprostone] | 95.4% |
| CN(C)N(C)C(=O)[C@@]1(Cc2ccccc2)CCCN(C(=O)[C@@H](Cc2c[nH]c3ccccc23)NC(=O)C(C)(C)N)C1 [Anamorelin] | 79.9% |
| O=S(=O)(O)c1cc(O)ccc1O [Ethamsylate] | 103% |
| Cc1c(O)c(=O)ccn1C [Deferiprone] | 102% |
| CCC(=O)O[C@]1(C(=O)CCl)[C@@H](C)C[C@H]2[C@@H]3CCC4=CC(=O)C=C[C@]4(C)[C@@]3(F)[C@@H](O)C[C@@]21C [Clobetasol propionate] | 71.6% |
| c1ccc([C@H]2CN3CCSC3=N2)cc1 [Levamisole hydrochloride] | 90.5% |
| COc1ccc(C2CNC(=O)C2)cc1OC1CCCC1 (stereo unspecified) [Rolipram] | 106% |
| CCCNCC(O)COc1ccccc1C(=O)CCc1ccccc1 (stereo unspecified) [Propafenone HCl] | 81.5% |
| COc1cc([C@@H]2c3cc4c(cc3[C@@H](O[C@@H]3O[C@@H]5CO[C@@H](C)O[C@H]5[C@H](O)[C@H]3O)[C@H]3COC(=O)[C@H]23)OCO4)cc(OC)c1O [Etoposide] | 79.2% |
| CNS(=O)(=O)C[C@H]1CC[C@H](N(C)c2[nH]cnc3nccc2-3)CC1 | 85.5% |
| COc1ccccc1OCC(O)CN1CCN(CC(=O)Nc2c(C)cccc2C)CC1 (stereo unspecified) [Ranolazine 2HCl] | 96.1% |
| COc1ccccc1OCC(O)CN1CCN(CC(=O)Nc2c(C)cccc2C)CC1 (stereo unspecified) [Ranolazine] | 92.7% |
| C[C@H]1C[C@@H]2[C@H]([C@@H](O)C[C@@]3(C)[C@H]2CC[C@]3(O)C(=O)CO)[C@@]2(C)C=CC(=O)C=C12 [Methylprednisolone] | 82.5% |
| COc1cc2c(Oc3ccc4[nH]c(C)cc4c3F)ncnc2cc1OCCCN1CCCC1 [Cediranib (AZD2171)] | 42.9% |
| C[C@H]1CNCCCN1S(=O)(=O)c1cccc2cncc(F)c12 [Ripasudil (K-115) hydrochloride dihydrate] | 53.9% |

| Structure (SMILES) | cell viability |
| --- | --- |
| O=C(O)c1cc(-c2ccccc2)nc2ccccc12 [Cinchophen] | 23.9% |
| CC(=O)O[C@]1(C(C)=O)CC[C@H]2[C@@H]3C[C@H](C)C4=CC(=O)CC[C@]4(C)[C@H]3CC[C@@]21C [Medroxyprogesterone acetate] | 88.6% |
| CCn1c(=O)c(-c2cc[nH]n2)cc2c(C)nc(N)nc21 | 69.4% |
| CN(C)c1nc(N(C)C)nc(N(C)C)n1 [Altretamine] | 52.2% |
| C[C@@H]1CCN(C(=O)CC#N)C[C@@H]1N(C)c1ncnc2[nH]ccc12 | 89.4% and 99.9% |
| O=c1[nH]c(=O)n(C2CCCO2)cc1F (stereo unspecified) | 92% |
| COc1ccc([C@]2(C#N)CC[C@@H](C(=O)O)CC2)cc1OC1CCCC1 [Cilomilast] | 102% |
| COCC[n+]1c2c(n(Cc3cnccn3)c1C)C(=O)c1ccccc1C2=O [YM155 (Sepantronium Bromide)] | 13.4% |
| O=c1oc2ccccc2c(O)c1Cc1c(O)c2ccccc2oc1=O [Dicoumarol] | 80.4% |
| CC(=O)[C@]1(O)Cc2c(O)c3c(c(O)c2[C@@H](O[C@H]2C[C@H](N)[C@H](O)[C@H](C)O2)C1)C(=O)c1ccccc1C3=O [Idarubicin HCl] | 22.8% |
| Cc1nc(=O)c2cc(CN(C)c3ccc(C(=O)N[C@@H](CCC(=O)O)C(=O)O)s3)ccc2[nH]1 [Raltitrexed] | 64.4% |
| CN1CCN(CCCN2c3ccccc3Sc3ccc(Cl)cc32)CC1 [Prochlorperazine dimaleate salt] | 85.1% |
| CN1CCN(CCCN2c3ccccc3Sc3ccc(Cl)cc32)CC1 [Prochlorperazine Dimaleate] | 80.4% |
| CC(/C=C1\SC(=S)N(CC(=O)O)C1=O)=C\c1ccccc1 [Epalrestat] | 88.9% |
| C[C@H](CCC(=O)O)[C@H]1CC[C@H]2[C@@H]3[C@H](O)C[C@@H]4C[C@H](O)CC[C@]4(C)[C@H]3CC[C@]12C [Chenodeoxycholic Acid] | 84.8% |
| NNc1nncc2ccccc12 [Hydralazine HCl] | 111% |
| CC(=O)OCC(CCn1cnc2cnc(N)nc21)COC(C)=O [Famciclovir] | 95.3% |
| C1CNCCN1 [Piperazine] | 83.4% |
| CC[C@H](C)C(=O)O[C@H]1CCC=C2C=C[C@H](C)[C@H](CC[C@@H]3C[C@@H](O)CC(=O)O3)[C@H]21 [Mevastatin] | 50.7% |
| Nc1cc(C(Cl)=C(Cl)Cl)c(S(N)(=O)=O)cc1S(N)(=O)=O [Clorsulon] | 80.3% |
| Cc1nnc(NS(=O)(=O)c2ccc(N)cc2)s1 [Sulfamethizole] | 95.4% |
| O=C1C2CC3CC1CC(O)(C3)C2 [Idramantone] | 94.2% |
| CCN1CCN(c2cc3c(cc2F)c(=O)c(C(=O)O)cn3C2CC2)CC1 [Enrofloxacin] | 100% |
| COc1cc(NS(C)(=O)=O)ccc1Nc1c2ccccc2nc2ccccc12 [Amsacrine hydrochloride] | 51.2% |

| Structure (SMILES) | cell viability |
| --- | --- |
| C[C@H]1CN(C[C@H](Cc2ccccc2)C(=O)NCC(=O)O)CC[C@@]1(C)c1cccc(O)c1 [Alvimopan dihydrate] | 101% |
| O=C(O)CCCc1ccccc1 [Sodium Phenylbutyrate] | 97.7% |
| Cc1cnc(NC(=O)C2=C(O)c3ccccc3S(=O)(=O)N2C)s1 [Meloxicam] | 88.9% |
| CC1(C)O[C@@H]2C[C@H]3[C@@H]4CCC5=CC(=O)C=C[C@]5(C)[C@@]4(F)[C@@H](O)C[C@]3(C)[C@]2(C(=O)CO)O1 [Triamcinolone Acetonide] | 78.3% |
| NC(=NCCCCCCN=C(N)N=C(N)Nc1ccc(Cl)cc1)N=C(N)Nc1ccc(Cl)cc1 [Chlorhexidine?2HCl] | 70.6% |
| OC1(c2ccc(Cl)c(C(F)(F)F)c2)CCN(CCCC(c2ccc(F)cc2)c2ccc(F)cc2)CC1 [Penfluridol] | 66.6% |
| C[C@@H]1C[C@H]2[C@@H]3CCC4=CC(=O)C=C[C@]4(C)[C@@]3(F)[C@@H](O)C[C@]2(C)[C@@]1(O)C(=O)CO [Dexamethasone (DHAP)] | 84.5% |
| O=C(O)COC(=O)Cc1ccccc1Nc1c(Cl)cccc1Cl [Aceclofenac] | 86.1% |
| COc1cc2nccc(Oc3ccc(NC(=O)C4(C(=O)Nc5ccc(F)cc5)CC4)cc3)c2cc1OC [Cabozantinib malate (XL184)] | 66.1% |
| COc1cc2nccc(Oc3ccc(NC(=O)C4(C(=O)Nc5ccc(F)cc5)CC4)cc3)c2cc1OC | 58.3% |
| O=C(O)/C=C/c1ccc(Cn2ccnc2)cc1 [Ozagrel sodium] | 91% |
| O=C(O)/C=C/c1ccc(Cn2ccnc2)cc1 [Ozagrel] | 92.5% |
| O=C(O)/C=C/c1ccc(Cn2ccnc2)cc1 [Ozagrel HCl] | 82.9% |
| CCCc1nc(C)c2c(=O)nc(-c3cc(S(=O)(=O)N4CCN(CC)CC4)ccc3OCC)[nH]n12 [Vardenafil HCl Trihydrate] | 95.3% |
| COc1cc(O)c(C(=O)Nc2nc(C(=O)NCCN(C(C)C)C(C)C)cs2)cc1OC [Acotiamide] | 79.8% |
| COc1cc(O)c(C(=O)Nc2nc(C(=O)NCCN(C(C)C)C(C)C)cs2)cc1OC [Acotiamide hydrochloride] | 92% |
| CC(C)(Oc1ccc(C(=O)c2ccc(Cl)cc2)cc1)C(=O)O [Fenofibric acid] | 97% |
| COCCOC(=O)C1=C(C)NC(C)=C(C(=O)OC/C=C/c2ccccc2)C1c1cccc([N+](=O)[O-])c1 (stereo unspecified) [Cilnidipine] | 94% |
| CCOc1nc2cccc(C(=O)O)c2n1Cc1ccc(-c2ccccc2-c2noc(=O)[nH]2)cc1 [Azilsartan] | 91.1% |
| CN(C)CCOc1ccc(/C(=C(/CCCl)c2ccccc2)c2ccccc2)cc1 [Toremifene Citrate] | 80.6% |
| CCCN(CCC)C(=O)C1=Cc2ccc(-c3ccc(C(=O)N4CCCC4)cc3)cc2N=C(N)C1 [Motolimod (VTX-2337)] | 78.5% |
| O=C(NCCO[N+](=O)[O-])c1cccnc1 [Nicorandil] | 91.2% |
| C=C1/C(=C\C=C2/CCC[C@]3(C)[C@@H]([C@H](C)/C=C/[C@@H](O)C4CC4)CC[C@@H]23)C[C@@H](O)C[C@@H]1O [Calcipotriene] | 85% |
